Some of these results come from one statement about several compounds together. Some ranges recur; such a range may be that of the whole group of compounds.
Legend:
Veronica persica [1] = test: Herbicidal post-emergence action; type: in vivo; details: post-emergence method, 0.32 kg of active substance per hectare, rated visually after about 3 weeks
[2] = system: a plurality of harmful plants; test: Herbicidal post-emergence action, greenhouse pot test; type: in vivo, monocotyledonous and dicotyledonous weeds; details: post-emergence method, 320 g or less of active substance per hectare, rated visually after about 3 weeks vs untreated controls
Alopecurus myosuroides [3] = test: Herbicidal pre-emergence action; type: in vivo; details: pre-emergence method, 0.32 kg of active substance per hectare, scored visually after about 3 weeks
Avena fatua = test: Herbicidal post-emergence action; type: in vivo; details: post-emergence method, 0.32 kg of active substance per hectare, rated visually after about 3 weeks
Veronica persica [4] = test: Herbicidal pre-emergence action; type: in vivo; details: pre-emergence method, 0.32 kg of active substance per hectare, scored visually after about 3 weeks
Setaria virides [5] = test: Herbicidal pre-emergence action; type: in vivo; details: pre-emergence method, 0.32 kg of active substance per hectare, scored visually after about 3 weeks
[6] = system: a plurality of harmful plants; test: Herbicidal pre-emergence action, greenhouse pot test; type: in vivo, monocotyledonous and dicotyledonous weed plants; details: pre-emergence method, 320 g or less of active substance per hectare, scored visually after about 3 weeks vs untreated controls
Stellaria media = test: Herbicidal post-emergence action; type: in vivo; details: post-emergence method, 0.32 kg of active substance per hectare, rated visually after about 3 weeks
Viola tricolor = test: Herbicidal pre-emergence action; type: in vivo; details: pre-emergence method, 0.32 kg of active substance per hectare, scored visually after about 3 weeks
Alopecurus myosuroides [7] = test: Herbicidal post-emergence action; type: in vivo; details: post-emergence method, 0.32 kg of active substance per hectare, rated visually after about 3 weeks
Setaria virides [8] = test: Herbicidal post-emergence action; type: in vivo; details: post-emergence method, 0.32 kg of active substance per hectare, rated visually after about 3 weeks
Viola tricolor virides = test: Herbicidal post-emergence action; type: in vivo; details: post-emergence method, 0.32 kg of active substance per hectare, rated visually after about 3 weeks
Echinochloa crus-galli [9] = test: Herbicidal pre-emergence action; type: in vivo; details: pre-emergence method, 0.32 kg of active substance per hectare, scored visually after about 3 weeks
Abutilon theophrasti = test: Herbicidal post-emergence action; type: in vivo; details: post-emergence method, 0.32 kg of active substance per hectare, rated visually after about 3 weeks
Cyprus esculentus = test: Herbicidal post-emergence action; type: in vivo; details: post-emergence method, 0.32 kg of active substance per hectare, rated visually after about 3 weeks
Amaranthus retroflexus [10] = test: Herbicidal post-emergence action; type: in vivo; details: post-emergence method, 0.32 kg of active substance per hectare, rated visually after about 3 weeks
Pharbitis purpurea = test: Herbicidal post-emergence action; type: in vivo; details: post-emergence method, 0.32 kg of active substance per hectare, rated visually after about 3 weeks
Polygonum convolvulus [11] = test: Herbicidal post-emergence action; type: in vivo; details: post-emergence method, 0.32 kg of active substance per hectare, rated visually after about 3 weeks
Echinochloa crus-galli [12] = test: Herbicidal post-emergence action; type: in vivo; details: post-emergence method, 0.32 kg of active substance per hectare, rated visually after about 3 weeks
Amaranthus retroflexus [13] = test: Herbicidal pre-emergence action; type: in vivo; details: pre-emergence method, 0.32 kg of active substance per hectare, scored visually after about 3 weeks
Polygonum convolvulus [14] = test: Herbicidal pre-emergence action; type: in vivo; details: pre-emergence method, 0.32 kg of active substance per hectare, scored visually after about 3 weeks
Lolium multiflorum = test: Herbicidal post-emergence action; type: in vivo; details: post-emergence method, 0.32 kg of active substance per hectare, rated visually after about 3 weeks

`COC(=O)C[C@@H](c1cccc(F)c1)[C@H](C#N)c1cncc(F)c1` (racemic) [erythro-Ibb9] was tested, and the herbicidal activity (Veronica persica [1]) was 80-100%, the herbicidal activity [2] was 70% to 100 and the herbicidal activity (Alopecurus myosuroides [3]) was 80-100%. For the same compound, the herbicidal activity (Avena fatua) was 80-100%, the herbicidal activity (Veronica persica [4]) was 90-100% and the herbicidal activity (Setaria virides [5]) was 90-100%. The herbicidal activity [6] was 70% to 100, the herbicidal activity (Stellaria media) was 80-100% and the herbicidal activity (Viola tricolor) was 90-100%.

For `COC(=O)C[C@@H](c1c(F)cccc1F)[C@H](C#N)c1cncc(F)c1` (racemic) [erythro-Ibb26], the herbicidal activity (Alopecurus myosuroides [7]) was 80-100%, the herbicidal activity (Setaria virides [8]) was 80-100% and the herbicidal activity (Viola tricolor virides) was 80-100%. For the same compound, the herbicidal activity (Veronica persica [1]) was 80-100%, the herbicidal activity [2] was 70% to 100 and the herbicidal activity (Alopecurus myosuroides [3]) was 80-100%. The herbicidal activity (Avena fatua) was 80-100%, the herbicidal activity (Echinochloa crus-galli [9]) was 90-100% and the herbicidal activity (Abutilon theophrasti) was 80-100%. For the same compound, the herbicidal activity (Cyprus esculentus) was 80-100%, the herbicidal activity (Amaranthus retroflexus [10]) was 80-100% and the herbicidal activity (Pharbitis purpurea) was 80-100%. The herbicidal activity (Setaria virides [5]) was 90-100%, the herbicidal activity (Polygonum convolvulus [11]) was 80-100% and the herbicidal activity [6] was 70% to 100. The herbicidal activity (Echinochloa crus-galli [12]) was 80-100%, the herbicidal activity (Amaranthus retroflexus [13]) was 80-100% and the herbicidal activity (Viola tricolor) was 90-100%. For the same compound, the herbicidal activity (Polygonum convolvulus [14]) was 80-100%.

With `COC(=O)CC(c1ccc(Cl)cc1)C(C#N)c1cncc(F)c1` (racemic) [erythro-Ibb2] the herbicidal activity (Alopecurus myosuroides [7]) was 80-100%, the herbicidal activity (Setaria virides [8]) was 80-100% and the herbicidal activity (Viola tricolor virides) was 80-100%. The herbicidal activity (Veronica persica [1]) was 80-100%, the herbicidal activity [2] was 70% to 100 and the herbicidal activity (Alopecurus myosuroides [3]) was 80-100%. For the same compound, the herbicidal activity (Avena fatua) was 80-100%, the herbicidal activity (Echinochloa crus-galli [9]) was 90-100% and the herbicidal activity (Abutilon theophrasti) was 80-100%. The herbicidal activity (Amaranthus retroflexus [10]) was 80-100%, the herbicidal activity (Pharbitis purpurea) was 80-100% and the herbicidal activity (Setaria virides [5]) was 90-100%. The herbicidal activity [6] was 70% to 100, the herbicidal activity (Lolium multiflorum) was 80-100% and the herbicidal activity (Echinochloa crus-galli [12]) was 80-100%. For the same compound, the herbicidal activity (Amaranthus retroflexus [13]) was 80-100%.

`COC(=O)CC(c1c(F)cccc1F)C(C#N)c1cncc(F)c1` (racemic) [threo-Ibb26] was tested, and the herbicidal activity (Alopecurus myosuroides [7]) was 80-100%, the herbicidal activity (Setaria virides [8]) was 80-100% and the herbicidal activity (Viola tricolor virides) was 80-100%. The herbicidal activity (Veronica persica [1]) was 80-100%, the herbicidal activity [2] was 70% to 100 and the herbicidal activity (Alopecurus myosuroides [3]) was 80-100%. The herbicidal activity (Avena fatua) was 80-100%, the herbicidal activity (Echinochloa crus-galli [9]) was 90-100% and the herbicidal activity (Abutilon theophrasti) was 80-100%. For the same compound, the herbicidal activity (Cyprus esculentus) was 80-100%, the herbicidal activity (Pharbitis purpurea) was 80-100% and the herbicidal activity (Polygonum convolvulus [11]) was 80-100%. The herbicidal activity [6] was 70% to 100, the herbicidal activity (Lolium multiflorum) was 80-100% and the herbicidal activity (Echinochloa crus-galli [12]) was 80-100%. For the same compound, the herbicidal activity (Stellaria media) was 80-100%, the herbicidal activity (Amaranthus retroflexus [13]) was 80-100% and the herbicidal activity (Viola tricolor) was 90-100%. The herbicidal activity (Polygonum convolvulus [14]) was 80-100%.

`COC(=O)CC(c1ccc(Cl)cc1)C(C#N)c1cncc(Br)c1` (stereo not drawn) [threo-Ibb1082, threo-methyl 4-cyano-4-(5-bromopyridin-3-yl)-3-(4-chlorophenyl)butanoate] was tested, and the herbicidal activity (Alopecurus myosuroides [7]) was 80-100%, the herbicidal activity (Setaria virides [8]) was 80-100% and the herbicidal activity (Echinochloa crus-galli [9]) was 90-100%. For the same compound, the herbicidal activity (Abutilon theophrasti) was 80-100%, the herbicidal activity (Cyprus esculentus) was 80-100% and the herbicidal activity (Veronica persica [4]) was 90-100%. The herbicidal activity (Lolium multiflorum) was 80-100%, the herbicidal activity (Echinochloa crus-galli [12]) was 80-100% and the herbicidal activity (Amaranthus retroflexus [13]) was 80-100%.

From patent US8975412B2, “Substituted 4-cyano-3-phenyl-4-(pyridin-3-yl)butanoates, processes for preparation thereof and use thereof as herbicides and plant growth regulators” (Bayer Intellectual Property GmbH, priority 2011, dated 2015)
